Source: paper PMC7819943, “Rice protein-binding microarrays: a tool to detect cis-acting elements near promoter regions in rice”
Some of the results follow.

By UniProt entry, the sequences of proteins in these tests, tags left out.
UniProt Q0JBA9, entry or part of it: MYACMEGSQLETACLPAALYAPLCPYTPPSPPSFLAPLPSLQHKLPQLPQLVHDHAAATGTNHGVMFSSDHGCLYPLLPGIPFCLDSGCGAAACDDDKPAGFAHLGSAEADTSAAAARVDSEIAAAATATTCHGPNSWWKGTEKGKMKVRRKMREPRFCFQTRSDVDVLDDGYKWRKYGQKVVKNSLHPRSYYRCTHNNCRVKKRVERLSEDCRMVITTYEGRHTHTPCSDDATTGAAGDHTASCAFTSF

Target: OsWRKY34 (Oryza sativa, UniProt Q0JBA9 1-250)
Assay: protein-binding microarray (RPBM); PBS, 2% BSA, 51.3 ng/ul salmon testes DNA, 50 uM zinc acetate, 200 nM TF, 25 C, 1 h; high values mean tight binding
Settings: protein: recombinant; tags: N-terminal polyhistidine and DsRed monomer fusion (pET32a); label: CyDye5-dUTP incorporated in the synthesized complementary strand; 3' TTTTT single-stranded linker to array surface; dsDNA, one strand shown
Summary of the method: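 Transcription factors, each fused N-terminally to a polyhistidine tag and DsRed, were expressed in E. coli BL21-CodonPlus and purified on Ni–NTA. A custom Agilent array was made double-stranded by primer extension with Cy5-dUTP and blocked with 2% BSA. It was incubated with 200 nM protein in PBS, 2% BSA, salmon testes DNA and 50 µM zinc acetate at 25 °C for 1 h, then washed. The binding signal is per-feature fluorescence intensity (arbitrary units) read on an Axon 4000B scanner.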

Sequence	binding signal
TTTTCCTTTACTTCTGAACTTATTTGCTTCTCCTTTTCCTCGGAGTCACCTAGTGCAG	9330 fluorescence intensity (a.u.)
GTGGTGGTGGTGGTGGTGGTGGCGGCGGCGGCCGGCCATGCGGAGTCACCTAGTGCAG	20000 fluorescence intensity (a.u.)
GTACTCTCCAACTATACATGCAAAGGCAGCCACACGTACACGGAGTCACCTAGTGCAG	8640 fluorescence intensity (a.u.)
GCAGCACTGGTTCCTAGCTTCTCTTCAGTCGTTCGGCCTACGGAGTCACCTAGTGCAG	11900 fluorescence intensity (a.u.)
TCTGTCACTCACTCACTCACTCACTCACTCACTAGAGTTACGGAGTCACCTAGTGCAG	8360 fluorescence intensity (a.u.)
TCGCTTTACCTTTGTTTCTCACTTCTGTAACTAAAACCTACGGAGTCACCTAGTGCAG	8520 fluorescence intensity (a.u.)
TTTTCACCAACTGTGCATAGGTGTACCATGTTTGGACAACCGGAGTCACCTAGTGCAG	9800 fluorescence intensity (a.u.)
TCCTCGATGACCGATCCGTCGTTCCGGCGCTAAGCACATGCGGAGTCACCTAGTGCAG	8090 fluorescence intensity (a.u.)
ATATAGGTTACGGATTTGTCATTGGTCGTTGTATTCTTTTCGGAGTCACCTAGTGCAG	10600 fluorescence intensity (a.u.)
TTTCCTTATATCCCTATGGTTTGTGTTCGACTCTTTTATCCGGAGTCACCTAGTGCAG	10100 fluorescence intensity (a.u.)
GCGCATGGTGTTCGGGAAGAAGTACATCGTCGAGGAGGGGCGGAGTCACCTAGTGCAG	8540 fluorescence intensity (a.u.)
CCTTGGTGTTGGCTCCTCCTGTCCAATCCTCTGGCTTAAGCGGAGTCACCTAGTGCAG	8040 fluorescence intensity (a.u.)
GGGTATTTTTTAAGTAGCTAGGTGTATAATTAAATTAGTTCGGAGTCACCTAGTGCAG	8760 fluorescence intensity (a.u.)
GATCTATTATATCTAGTCTTTCGGTTCGGGGCAGTTTTAACGGAGTCACCTAGTGCAG	11800 fluorescence intensity (a.u.)
TCTTTCATGCCAACCCGCCGTCCTAGCCACTCCCGTTCTTCGGAGTCACCTAGTGCAG	14200 fluorescence intensity (a.u.)
TCCCGGCCACTTGCCGTGTGACGACGCCGGTCAAATTTTCCGGAGTCACCTAGTGCAG	10300 fluorescence intensity (a.u.)
TGCGGCCCACCTTTGCTTCTTCGTTGACTTTCTTGCCGTCCGGAGTCACCTAGTGCAG	26900 fluorescence intensity (a.u.)
AATGTTTATATTTTGGGACAGAGGGTGTATGTATGTAGACCGGAGTCACCTAGTGCAG	8070 fluorescence intensity (a.u.)
TGTGTGGTTGAGGGAGGTGATTCAATTAGGAGCGAACGATCGGAGTCACCTAGTGCAG	9190 fluorescence intensity (a.u.)
ATGGATAGTTAGATTTTTTTTTTAATTTTTTGAACTTTTTCGGAGTCACCTAGTGCAG	9420 fluorescence intensity (a.u.)
TAAATATGATACCGTGTCGACTGTTTCCTCGCCTCCTTCCCGGAGTCACCTAGTGCAG	8300 fluorescence intensity (a.u.)

Quoted at random: 3 records from the list.
Sequence	binding signal
TTTTCACCAACTGTGCATAGGTGTACCATGTTTGGACAACCGGAGTCACCTAGTGCAG	9800 fluorescence intensity (a.u.)
ATGGATAGTTAGATTTTTTTTTTAATTTTTTGAACTTTTTCGGAGTCACCTAGTGCAG	9420 fluorescence intensity (a.u.)
AATGTTTATATTTTGGGACAGAGGGTGTATGTATGTAGACCGGAGTCACCTAGTGCAG	8070 fluorescence intensity (a.u.)

(continued)

Sequence	binding signal
CTTAATGTTAATCACACCGCTTAACCAAATGTCTTCTACACGGAGTCACCTAGTGCAG	8770 fluorescence intensity (a.u.)
GCGACGAGAGCTGTCGTGGGTGGCGGTGGTGGGCTCGCTGCGGAGTCACCTAGTGCAG	8280 fluorescence intensity (a.u.)
TCCTGAATTCGTCCCTACCCGCGCCAGATCGGAGCTCGTACGGAGTCACCTAGTGCAG	8030 fluorescence intensity (a.u.)
AACCTTTGCCCGCCGCCGCCGCCGACGAGAATCTCCTCCTCGGAGTCACCTAGTGCAG	10500 fluorescence intensity (a.u.)
GCCTCCACGCCTTGCTGCCGCAACTGACGTCGTCGTCGTCCGGAGTCACCTAGTGCAG	10900 fluorescence intensity (a.u.)
CGTTACCTACTCCCTCCTACCACTACCACCAACGTCGCATCGGAGTCACCTAGTGCAG	8130 fluorescence intensity (a.u.)
TCTCTCTCTCTACAGACTACAGTGCGTCGTCGTGTCTTCTCGGAGTCACCTAGTGCAG	10900 fluorescence intensity (a.u.)
CGATCGATCGATCGCGCGCCTCCGCCTATAAATTCTTGCCCGGAGTCACCTAGTGCAG	8230 fluorescence intensity (a.u.)
GCTCACCGCCGCTGTTCCTCCTCATGTTTGTGTACGCATCCGGAGTCACCTAGTGCAG	9730 fluorescence intensity (a.u.)
CCATACACCGGCCATGCTTGCTCCTCCTGCGTTCATGCATCGGAGTCACCTAGTGCAG	8670 fluorescence intensity (a.u.)
CCACTGTCATTTCGTCCGCTACGCTCCGGCCCAAGCCTCCCGGAGTCACCTAGTGCAG	8950 fluorescence intensity (a.u.)
TCAGAAAATGTCACAAAATTGTTCGCTTTATCTCTATATCCGGAGTCACCTAGTGCAG	8160 fluorescence intensity (a.u.)
TTATCCTCCTGGGAGTGTTGCAACTATGTTTTTTTAGTGTCGGAGTCACCTAGTGCAG	8780 fluorescence intensity (a.u.)
AGTCTTTGAAGATGCTTATAGGGGTAGGGTTTGCGTGCGTCGGAGTCACCTAGTGCAG	9620 fluorescence intensity (a.u.)
GCCATGATGCCTCTGTCGCCGTCTCCGGAGCCTACTCTCCCGGAGTCACCTAGTGCAG	10500 fluorescence intensity (a.u.)
TTCCTGACCCTGCTTCACCTTAATTGTTATTTGAACAAAACGGAGTCACCTAGTGCAG	9510 fluorescence intensity (a.u.)
CGTCTCGTCCACCGCGGCTCGCCTCGTCGTCTTCCAGCCGCGGAGTCACCTAGTGCAG	9050 fluorescence intensity (a.u.)
AATTCTCCATTTAACTTTTCCGTTTTCCAATTTCACATCACGGAGTCACCTAGTGCAG	8580 fluorescence intensity (a.u.)
CTATCTATAGGCCCATTATTATCTATCTGTGTTATGTTTTCGGAGTCACCTAGTGCAG	8360 fluorescence intensity (a.u.)
AGCTTTGGTTCTTGGTTTGTGTTTCTAGTTGATGCACTCCCGGAGTCACCTAGTGCAG	10200 fluorescence intensity (a.u.)
TCATTGTAGTTCTTTCCATCGCAGAGGGTGGGCTAGGGCGCGGAGTCACCTAGTGCAG	10700 fluorescence intensity (a.u.)
